# According to PubChem BioAssay AID256 (DTP/NCI, 2004):
# The list shows only some results of the screen, not a fair sample: it gathers tests that were run many times, whatever their T/C, doses with no T/C, and many T/C values between a quarter and a half above the control. Other doses and runs of a compound stand elsewhere. T/C is the treated group as % of the vehicle group. Some doses have a count of surviving animals in place of a T/C: the source files T/C as zero there, which appears to mark a toxic dose or a test without result, not a measured value. Some doses without a T/C left all or most animals alive at the check, yet need not have been tolerated: the source hardly ever lists a survival T/C far under the control, and the zero likely stands for such cases as well. Counts of survivors are from the toxicity check (mostly the fifth day) where no day follows; animals may have died later. Schedules are NCI's codes, read here as Q, the interval in days (D) or hours (H), X, the number of doses. For survival time, the PubChem record calls one and a half times the control and up active, and a quarter to a half above the control has no call in these data; cut-offs in other NCI protocols can differ.
# Tested on: CD2F1 mice, L1210 leukemia ip, survival T/C
# Assay: NCI In Vivo Anticancer Drug Screen. Data for tumor model L1210 Leukemia (intraperitoneal) in CD2F1 (CDF1) mice
# Conditions: higher T/C = longer survival
# Procedure: The antitumor activity of compounds was measured in mice bearing transplantable tumors. Survival or tumor size were measured and the results are expressed as the measurement made in the treated group (T) divided by the measurement made in the vehicle treated control group (C). The tumor model used in this assay is L1210 Leukemia (intraperitoneal) in CD2F1 (CDF1) mice
# [1] = T/C endpoint: mean survival time, dose: 100.0 mg/kg/injection, schedule: Q04DX002 (ip), vehicle: saline with Tween-80
# [2] = T/C endpoint: mean survival time, dose: 200.0 mg/kg/injection, schedule: Q04DX002 (ip), vehicle: saline with Tween-80
# [3] = T/C endpoint: mean survival time, dose: 400.0 mg/kg/injection, schedule: Q01DX001 (ip), vehicle: saline with Tween-80
# [4] = T/C endpoint: mean survival time, dose: 300.0 mg/kg/injection, schedule: Q01DX001 (ip), vehicle: other
# [5] = T/C endpoint: mean survival time, dose: 200.0 mg/kg/injection, schedule: Q04DX003 (ip), vehicle: saline with Tween-80
# [6] = T/C endpoint: mean survival time, dose: 400.0 mg/kg/injection, schedule: Q04DX003 (ip), vehicle: saline with Tween-80
# [7] = T/C endpoint: mean survival time, dose: 100.0 mg/kg/injection, schedule: Q04DX003 (ip), vehicle: saline with Tween-80
# [8] = T/C endpoint: mean survival time, dose: 400.0 mg/kg/injection, schedule: Q04DX003 (ip), vehicle: saline
# [9] = T/C endpoint: mean survival time, dose: 150.0 mg/kg/injection, schedule: Q01DX001 (ip), vehicle: saline
# [10] = T/C endpoint: mean survival time, dose: 300.0 mg/kg/injection, schedule: Q01DX001 (ip), vehicle: saline
# [11] = T/C endpoint: mean survival time, dose: 200.0 mg/kg/injection, schedule: Q04DX003 (ip), vehicle: saline
# [12] = T/C endpoint: mean survival time, dose: 32.0 mg/kg/injection, schedule: Q01DX009 (ip), vehicle: acid diluted with saline
compound,measurement,setting,value
CCOc1nc2nc[nH]c(=O)c2cc1C#N,survivor count,"T/C endpoint: mean survival time, dose: 50.0 mg/kg/injection, schedule: Q04DX002 (ip), vehicle: saline with Tween-80",1 of 3
same,survivor count,[1],0 of 3
same,survivor count,[2],0 of 3
same,survivor count,[3],0 of 6
[O-]c1c(Cl)c(Cl)c(O[P+](c2ccccc2)(c2ccccc2)c2ccccc2)c(Cl)c1Cl,survivor count,"T/C endpoint: mean survival time, dose: 50.0 mg/kg/injection, schedule: Q01DX009 (ip), vehicle: saline",3 of 3
same,survivor count,"T/C endpoint: mean survival time, dose: 100.0 mg/kg/injection, schedule: Q01DX009 (ip), vehicle: saline",3 of 3
same,survivor count,"T/C endpoint: mean survival time, dose: 200.0 mg/kg/injection, schedule: Q01DX009 (ip), vehicle: saline",0 of 3
CC1CN(CCC#N)C(=O)S1(=O)=O (stereo unspecified),survivor count,"T/C endpoint: mean survival time, dose: 150.0 mg/kg/injection, schedule: Q01DX001 (ip), vehicle: other",2 of 6
same,survivor count,[4],0 of 6
CC(C)(C)C1CCCCC1,survivor count,"T/C endpoint: mean survival time, dose: 400.0 mg/kg/injection, schedule: Q01DX009 (ip), vehicle: Klucel (hydroxypropylcellulose) (HPC)",3 of 6
COc1ccc(CN2CCCNCC2)cc1,survivor count,"T/C endpoint: mean survival time, dose: 400.0 mg/kg/injection, schedule: Q01DX005 (ip), vehicle: water",0 of 6
O=[As](O)(O)CC(Br)CBr (stereo unspecified),survivor count,"T/C endpoint: mean survival time, dose: 400.0 mg/kg/injection, schedule: Q01DX009 (ip), vehicle: saline with Tween-80",2 of 6
CCC[N+](CCC)(CCC)CCC.N#CC(C#N)=C([SH2+])[SH2+].N#CC(C#N)=C([SH2+])[SH2+].N#CC(C#N)=C([SH2+])[SH2+].[Fe+3],survivor count,"T/C endpoint: mean survival time, dose: 100.0 mg/kg/injection, schedule: Q04DX003 (ip), vehicle: acetone",3 of 6
CC1OC(Sc2ncnc3nc[nH]c23)C(O)C(O)C1O (stereo unspecified),T/C,"T/C endpoint: median survival time, dose: 100.0 mg/kg/injection, schedule: Q01DX005 (ip), vehicle: saline with Tween-80",141 % of control
N#CCCCN1CCCCCC1,survivor count,[5],0 of 6
same,survivor count,[6],0 of 6
O=C(CC(=O)CC(O)(C(F)(F)F)C(F)(F)F)CC(O)(C(F)(F)F)C(F)(F)F,survivor count,"T/C endpoint: mean survival time, dose: 20.0 mg/kg/injection, schedule: Q04DX003 (ip), vehicle: saline",0 of 6
same,survivor count,[7],0 of 6
same,survivor count,[5],0 of 6
same,survivor count,[6],0 of 6
NNC(N)=S,survivor count,[7],0 of 6
same,survivor count,[5],0 of 6
same,survivor count,[6],0 of 6
C=CCNc1ncnc2c1cnn2C,survivor count,[8],3 of 6
O=C1CN(c2ccc3ccccc3c2)NO1,survivor count,[6],0 of 3
COc1cc([N+](=O)[O-])c(C)[n+]([O-])n1,survivor count,[1],0 of 3
Nc1c2c(nn1-c1ccccc1)C(=O)N(CCc1ccccc1)C2,survivor count,[7],6 of 6
same,survivor count,[5],6 of 6
CN(CCC(=O)N(C)CCC1CCCCC1)CCC1CCCCC1,survivor count,[9],1 of 6
same,survivor count,[10],0 of 6
CCCCCCCCCCCCCCCCCCN (tested in a mixture with another compound),survivor count,"T/C endpoint: mean survival time, dose: 400.0 mg/kg/injection, schedule: Q04DX002 (ip), vehicle: saline with Tween-80",1 of 3
C1=C(CN2CCCCC2)COc2ccccc21,survivor count,[10],0 of 6
N#[N+]c1c(C(=O)O)[nH]c(=O)[nH]c1=O,survivor count,"T/C endpoint: mean survival time, dose: 50.0 mg/kg/injection, schedule: Q04DX003 (ip), vehicle: saline with Tween-80",3 of 6
O=C1CCc2c1cc(O)c1ccc(S(=O)(=O)O)cc21,survivor count,"T/C endpoint: mean survival time, dose: 100.0 mg/kg/injection, schedule: Q01DX001 (ip), vehicle: saline",3 of 6
same,survivor count,"T/C endpoint: mean survival time, dose: 200.0 mg/kg/injection, schedule: Q01DX001 (ip), vehicle: saline",0 of 6
same,survivor count,"T/C endpoint: mean survival time, dose: 400.0 mg/kg/injection, schedule: Q01DX001 (ip), vehicle: saline",0 of 6
CCOC(=O)N1C2CCC1CN(C)C2,survivor count,"T/C endpoint: mean survival time, dose: 100.0 mg/kg/injection, schedule: Q04DX003 (ip), vehicle: saline",6 of 6
same,survivor count,[11],0 of 6
same,survivor count,[8],0 of 6
COc1ccc(SC2=CC(=O)c3ccccc3C2=O)cc1,survivor count,[4],1 of 6
CCNCCNc1ccc(NCCNCC)c2c1C(=O)c1ccccc1C2=O,T/C,"T/C endpoint: mean survival time, dose: 8.0 mg/kg/injection, schedule: Q01DX009 (ip), vehicle: acid diluted with saline, evaluated on day 30",128 % of control
same,T/C,"T/C endpoint: mean survival time, dose: 8.0 mg/kg/injection, schedule: Q01DX009 (ip), vehicle: acid diluted with saline, evaluated on day 35",132 % of control
same,T/C,"T/C endpoint: mean survival time, dose: 16.0 mg/kg/injection, schedule: Q01DX009 (ip), vehicle: acid diluted with saline, evaluated on day 30",130 % of control
same,T/C,"T/C endpoint: mean survival time, dose: 16.0 mg/kg/injection, schedule: Q01DX009 (ip), vehicle: acid diluted with saline, evaluated on day 35",132 % of control
same,T/C,[12],137 % of control
same,survivor count,[12],5 of 6
same,survivor count,"T/C endpoint: mean survival time, dose: 64.0 mg/kg/injection, schedule: Q01DX009 (ip), vehicle: acid diluted with saline",0 of 6
O=C1CNC(=O)N1CN1CCOCC1,survivor count,"T/C endpoint: median survival time, dose: 800.0 mg/kg/injection, schedule: Q01DX009 (ip), vehicle: Klucel (hydroxypropylcellulose) (HPC)",1 of 6
CC(C)[C@](O)(C(=O)OCC1=CCN2CC[C@@H](O)[C@@H]12)[C@H](C)O,survivor count,"T/C endpoint: median survival time, dose: 800.0 mg/kg/injection, schedule: Q01DX009 (ip), vehicle: water",0 of 6
Nc1nc(N)c2cc(CCc3ccccc3)ccc2n1,survivor count,"T/C endpoint: mean survival time, dose: 100.0 mg/kg/injection, schedule: Q01DX009 (ip), vehicle: Klucel (hydroxypropylcellulose) (HPC)",3 of 6
same,survivor count,[7],1 of 6
same,survivor count,"T/C endpoint: mean survival time, dose: 200.0 mg/kg/injection, schedule: Q01DX009 (ip), vehicle: Klucel (hydroxypropylcellulose) (HPC)",0 of 6
same,survivor count,[5],1 of 6
same,survivor count,[6],1 of 6
COC(=O)c1cccn1C(=O)c1cc(OC)c(OC)cc1[N+](=O)[O-],survivor count,[2],1 of 3
c1ccc(C[P+](c2ccccc2)(c2ccccc2)c2ccccc2)cc1,survivor count,"T/C endpoint: mean survival time, dose: 100.0 mg/kg/injection, schedule: Q01DX001 (ip), vehicle: saline with Tween-80",0 of 6
same,survivor count,"T/C endpoint: mean survival time, dose: 200.0 mg/kg/injection, schedule: Q01DX001 (ip), vehicle: saline with Tween-80",0 of 6
same,survivor count,[3],0 of 6
COc1ccc2c(c1OC)C1C3CC=CC3C2C2=[N+]1CCc1cc3c(cc12)OCO3 (stereo unspecified),survivor count,"T/C endpoint: mean survival time, dose: 50.0 mg/kg/injection, schedule: Q04DX003 (ip), vehicle: saline",5 of 6
same,survivor count,[11],0 of 6
same,survivor count,[8],0 of 6
C=C(Cl)COC1CCS(=O)(=O)C1 (stereo unspecified),survivor count,"T/C endpoint: mean survival time, dose: 50.0 mg/kg/injection, schedule: Q01DX009 (ip), vehicle: saline with Tween-80",0 of 3
same,survivor count,"T/C endpoint: mean survival time, dose: 100.0 mg/kg/injection, schedule: Q01DX009 (ip), vehicle: saline with Tween-80",0 of 3
same,survivor count,"T/C endpoint: mean survival time, dose: 200.0 mg/kg/injection, schedule: Q01DX009 (ip), vehicle: saline with Tween-80",0 of 3
CCOc1cc(NCCCN)c2nc(OCc3ccccc3)ccc2c1,survivor count,[9],0 of 6
same,survivor count,[10],0 of 6
